Test results published in PMC11787391.
These are yes or no findings as the source states them, for the method shown. Binding seen in cells or lysates may run through a third protein. Some results given as binding are weak or reduced against the parent protein; the word gives no strength. For part of these data: Tags and fused reporters may be left off the sequences shown. Blank lines part the entries; values can stand above or below the molecule they belong to.

Amino acid sequences for entries named in this document (tags omitted).
UniProt P63010: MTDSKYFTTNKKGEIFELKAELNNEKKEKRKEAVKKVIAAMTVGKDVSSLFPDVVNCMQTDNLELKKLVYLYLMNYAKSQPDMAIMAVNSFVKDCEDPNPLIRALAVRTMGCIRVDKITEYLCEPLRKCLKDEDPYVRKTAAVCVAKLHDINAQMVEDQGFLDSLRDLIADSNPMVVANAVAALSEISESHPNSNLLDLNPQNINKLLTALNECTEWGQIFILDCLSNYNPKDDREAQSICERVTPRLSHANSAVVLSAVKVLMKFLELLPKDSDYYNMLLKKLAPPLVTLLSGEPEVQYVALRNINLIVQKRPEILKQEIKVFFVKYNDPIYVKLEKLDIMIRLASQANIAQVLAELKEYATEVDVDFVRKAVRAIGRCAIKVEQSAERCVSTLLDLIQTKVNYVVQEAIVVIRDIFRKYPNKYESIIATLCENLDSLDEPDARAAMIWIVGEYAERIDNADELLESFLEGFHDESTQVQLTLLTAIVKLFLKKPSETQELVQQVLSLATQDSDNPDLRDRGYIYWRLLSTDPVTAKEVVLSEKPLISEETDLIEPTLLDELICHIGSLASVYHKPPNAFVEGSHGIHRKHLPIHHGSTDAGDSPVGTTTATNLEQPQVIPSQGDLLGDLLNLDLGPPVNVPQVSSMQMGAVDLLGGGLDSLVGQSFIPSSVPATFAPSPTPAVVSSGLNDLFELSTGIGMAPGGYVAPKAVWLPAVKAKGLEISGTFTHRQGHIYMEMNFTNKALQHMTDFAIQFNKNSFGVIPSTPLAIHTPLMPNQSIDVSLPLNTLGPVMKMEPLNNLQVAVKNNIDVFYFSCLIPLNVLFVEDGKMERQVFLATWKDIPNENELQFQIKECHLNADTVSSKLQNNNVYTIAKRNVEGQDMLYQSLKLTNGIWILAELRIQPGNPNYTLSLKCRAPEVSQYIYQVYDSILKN

What was measured:
[1] = target: Endogenous GPN3 (human (endogenous in 293T and NCI-H1299)) (UniProt Q9UHW5); assay: co-IP; immunoprecipitation of endogenous proteins from 293T and NCI-H1299 cells
[2] = target: HA-GPN3 (human) (UniProt Q9UHW5); assay: co-IP; 293T cells transfected with HA-GPN3, Flag-EGFR or control vector; lysates immunoprecipitated with anti-Flag or anti-HA magnetic beads
[3] = target: Flag-GPN3 (human) (UniProt Q9UHW5); assay: co-IP; 293T cells transfected with Flag-GPN3, GFP-EGFR or control vector; with or without 10 ng/ml EGF for 5 min (Fig. 2D) or overnight MPA (Fig. 3B) before lysis
[4] = target: GST-GPN3 (human) (UniProt Q9UHW5); assay: pull-down; GST-GPN3 held on Anti-GST magnetic beads, incubated with lysates from 293T cells expressing the tagged prey; bead-associated proteins detected by immunoblotting; only the target purified
[5] = target: Flag-EGFR (human) (UniProt P00533); assay: co-IP; 293T cells transfected with HA-GPN3, Flag-EGFR or control vector; lysates immunoprecipitated with anti-Flag or anti-HA magnetic beads

Molecule: Flag-EGFR (from UniProt P00533 25-1210) (receptor)
binding [2]: binds

Molecule: HA-AP2B1 (from UniProt P63010 1-937)
binding [4]: binds

B1: Flag-CLTA (protein, UniProt P09496 1-248)
chain: MAELDPFGAPAGAPGGPALGNGVAGAGEEDPAAAFLAQQESEIAGIENDEAFAILDGGAPGPQPHGEPPGGPDAVDGVMNGEYYQESNGPTDSYAAISQVDRLQSEPESIRKWREEQMERLEALDANSRKQEAEWKEKAIKELEEWYARQDEQLQKTKANNRVADEAFYKQPFADVIGYVTNINHPCYSLEQAAEEAFVNDIDESSPGTEWERVARLCDFNPKSSKQAKDVSRMRSVLISLKQAPLVH
binding [4]: binds

Continued, values first:

binding [1]: binds
Molecule: Endogenous EGFR (from UniProt P00533 25-1210) (receptor)

binding [3]: binds
Molecule: GFP-EGFR (from UniProt P00533 25-1210) (receptor)

binding [5]: binds
Molecule: HA-GPN3 (from UniProt Q9UHW5 1-284)
